The results in this text go back to publication PMC9297664 (Arthritis Research & Therapy, 2022).

This series is described as follows: peptide made by a vendor (Fmoc solid-phase peptide synthesis). As to conditions: whole synthesis, reverse-phase C18 HPLC; mass confirmed by MALDI-TOF.

Some results are limits rather than exact numbers.

Turning to RRRR(NNRRR)3R, the “final HPLC purity” value is on record as greater than 95%.
